Data: paper PMC11635738
These are yes or no findings as the source states them, for the method shown. In cells and extracts the contact can be indirect. Some entries that bind do so weakly or less than the wild type. Tags and fused reporters may be left off the sequences shown.

T1: FLAG-SREBF1(N) WT (pcDNA3.1-FLAG-Srebf1(N)), N-terminus of SREBF1 (mouse) (UniProt Q9WTN3)
T1 sequence: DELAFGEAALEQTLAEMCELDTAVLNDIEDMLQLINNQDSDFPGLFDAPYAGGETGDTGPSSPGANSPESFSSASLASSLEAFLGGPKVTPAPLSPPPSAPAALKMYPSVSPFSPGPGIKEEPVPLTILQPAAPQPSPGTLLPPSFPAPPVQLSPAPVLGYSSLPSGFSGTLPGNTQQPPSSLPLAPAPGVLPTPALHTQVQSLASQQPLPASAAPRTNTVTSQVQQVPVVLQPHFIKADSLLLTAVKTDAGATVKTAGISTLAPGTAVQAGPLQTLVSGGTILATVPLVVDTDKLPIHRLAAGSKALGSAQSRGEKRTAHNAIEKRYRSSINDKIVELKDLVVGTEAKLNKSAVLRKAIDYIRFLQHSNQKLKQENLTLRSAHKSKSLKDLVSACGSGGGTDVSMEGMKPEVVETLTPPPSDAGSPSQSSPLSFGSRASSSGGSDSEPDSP

T2: FLAG full-length SREBF1 (pcDNA3.1-FLAG-Srebf1) (mouse) (UniProt Q9WTN3)
T2 sequence: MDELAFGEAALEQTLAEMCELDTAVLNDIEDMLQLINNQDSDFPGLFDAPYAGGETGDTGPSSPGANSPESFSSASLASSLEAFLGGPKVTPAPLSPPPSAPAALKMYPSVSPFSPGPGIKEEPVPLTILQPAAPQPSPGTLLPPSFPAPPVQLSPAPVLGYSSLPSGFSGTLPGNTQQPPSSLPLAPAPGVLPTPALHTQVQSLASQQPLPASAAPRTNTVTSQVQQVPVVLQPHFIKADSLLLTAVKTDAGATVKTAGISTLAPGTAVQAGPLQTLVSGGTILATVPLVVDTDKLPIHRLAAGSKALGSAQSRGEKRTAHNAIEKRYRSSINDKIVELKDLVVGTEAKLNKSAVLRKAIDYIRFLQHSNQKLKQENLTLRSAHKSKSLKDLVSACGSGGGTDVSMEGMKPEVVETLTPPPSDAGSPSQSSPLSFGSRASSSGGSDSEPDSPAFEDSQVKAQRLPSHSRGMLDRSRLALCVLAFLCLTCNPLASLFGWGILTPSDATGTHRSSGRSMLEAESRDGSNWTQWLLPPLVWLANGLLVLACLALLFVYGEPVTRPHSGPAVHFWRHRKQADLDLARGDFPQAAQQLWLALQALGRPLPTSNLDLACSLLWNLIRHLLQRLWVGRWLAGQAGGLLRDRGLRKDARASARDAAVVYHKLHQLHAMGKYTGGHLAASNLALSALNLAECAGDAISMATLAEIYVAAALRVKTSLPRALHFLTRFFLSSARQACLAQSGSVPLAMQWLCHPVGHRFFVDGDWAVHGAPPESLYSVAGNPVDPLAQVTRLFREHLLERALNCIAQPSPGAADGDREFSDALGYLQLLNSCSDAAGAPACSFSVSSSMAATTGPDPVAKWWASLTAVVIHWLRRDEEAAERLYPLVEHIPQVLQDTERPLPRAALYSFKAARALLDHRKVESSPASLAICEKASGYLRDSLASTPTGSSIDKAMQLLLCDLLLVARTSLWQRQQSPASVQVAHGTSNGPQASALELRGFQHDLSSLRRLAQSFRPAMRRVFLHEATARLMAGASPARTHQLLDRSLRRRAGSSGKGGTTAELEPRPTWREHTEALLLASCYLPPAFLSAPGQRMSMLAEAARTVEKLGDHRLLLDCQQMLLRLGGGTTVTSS

B1: myc-ARMC5 (pcDNA3.1-myc-mArmc5) (protein, UniProt Q5EBP3 1-926)
chain: MAAARPALTDSLSFCLAQLTAAAGEGPGGGKDPATNETPLGRALLALRTRHIKAAEGIERFRARGGLRPLLALLRRTAAAGPAPSQAASGSAPSSVASAGSTPGHAPAAESLLTPSLPMRLRKTLDLALSILANCCTEGACRAEVRRLGGILPLVTILQCVKTDSIQNRTARALGNLAMEPESCRDIHSAGAVPFLVESLTACQDSQCLQSIVRALRNLADSPQHRLALAQQGAVRPLAELLATAPDPALTAALVRALLELSRGCSRACAEQLSLGGALGPLVSLASHPKRAIREAAILILANLCAQGLVRPALGNAGGVEVLLGELRRRRSPGGSSSATQQPLVRAVCLLCREAINRARLRDAGGLELLMGLLQDPGASAWHPRVVAALVGFLYDTGALGKLQALGLVPLLARQLCGEAGEEEEEGIEAASWDFPEERTSGQAEGGSFRSLRLWLISEGYAAGPGDISPDWSPERCPMPEPSESVSPTPGQTSMSTPRTLRKPGRIPAATPEEPWGQEGPALLLLSRFSQAPDPSGALVTGPALCGLLAYVTGAPGPPNPRALRILARLTCNPACLEAFVRTYGAALLRAWLVLGVSPDDWPVPHARPVHRSQHRELGEMLLQNLTVQAESPFGVGALTHLLLSGSPEDRVACALTLPFICRKPTLWRRLLLDQGGLRLLLTALTQPAPHPLFLFFAADSLSCLQGLVSPTASPVPLPALPLELDSPPPCLYEPLLGPAPAPAPDLHFVLDSGLQLPAQRAASAAASPFFRALLSGSFAEAQMDLVPLRGLSPGAAWPVLHHLHGCRGCGAALGPVPPPGQPLLGSKAEEALEAAGRFLLPALEEELEEAVGRIHLSPRGGPESVGEVFRLGRPRLAAHCARWTLEPGQCPRKRALALTGLVEAAGEEAGPLTEALLAVVMGIES
B2: V5-ARMC5 (pcDNA3.1-V5-Armc5; printed as pcDNA3.1-FLAG-V5-Armc5 in the legend of Figure 9B) (protein, UniProt Q5EBP3 1-926)
chain: B1 chain

Tests used:
[1] = target: T1, FLAG-SREBF1(N) WT (pcDNA3.1-FLAG-Srebf1(N)), N-terminus of SREBF1 (mouse); experiment: co-IP; HEK293T cells co-transfected with myc-mArmc5 and FLAG-Srebf1(N) WT or deletion mutants; lysis in TNE buffer (10 mM Tris-HCl, 150 mM NaCl, 1 mM EDTA, 1% NP40); anti-FLAG M2 Affinity Gel; elution with FLAG peptide; Western blot
[2] = target: T2, FLAG full-length SREBF1 (pcDNA3.1-FLAG-Srebf1) (mouse); experiment: co-IP; HEK293T cells transfected with FLAG-Srebf1 (full length) and/or 2xMyc-SCAP together with V5-Armc5 and PA-Insig1; lysis in TNE buffer; anti-FLAG M2 Affinity Gel; elution with FLAG peptide; Western blot

Binder | binding [1] | binding [2]
B1 | binds | 
B2 |  | binds
